# Experimental data: the supplement of paper PMC9135407
# “And” between values parts separate entries of the source, which are not always exact repeats. Equal values may be shown once. Where a name gives a salt, the structure may show the parent alone. ± gives the standard deviation of the averaged measurements. The list shows a part of the results. Baselines shift from plate to plate; read single values as rough.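 Assay uses culture-activated primary human stellate myofibroblasts; lipid droplet recovery indicates inactivation. Measured: proportion of Hoechst-counted cells over a plate-specific Bodipy cutoff, duplicate wells, DMSO and nortriptyline as per-plate negative and positive controls. A hit scores, control-normalized, above the plate's top-tenth-percentile nortriptyline wells or ranks among its three best wells. Final well concentrations not reported.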
# Tested on: primary human hepatic stellate cells (donor 1)
# Assay: percent Bodipy-positive cells; higher = more lipid droplet accumulation
# Details: 48 h
# [1] = library stock concentration: 4.5 mM
# [2] = library stock concentration: 10 mM
# [3] = library stock concentration: 80 uM
# [4] = library stock concentration: 400 uM
# [5] = library stock concentration: 2 mM
# [6] = library stock concentration: 3.33 mM
# [7] = library stock concentration: 1 mM
structure (smiles),measurement,setting,value
Nc1nc(=O)c2nc(CNc3ccc(C(=O)N[C@@H](CCC(=O)O)C(=O)O)cc3)cnc2[nH]1 [Folic acid],percent Bodipy-positive cells,,40 ± 12%
same,percent Bodipy-positive cells,[1],14.3 ± 0.8%
same,percent Bodipy-positive cells,[2],32.8% and 30.3%
Nc1nc(F)nc2c1ncn2[C@@H]1O[C@H](CO)[C@@H](O)[C@@H]1O,percent Bodipy-positive cells,[2],91.73 ± 0.37%
Nc1nc(F)nc2c1ncn2[C@@H]1O[C@H](CO)[C@@H](O)[C@@H]1O [Fludarabine],percent Bodipy-positive cells,[2],62 ± 5.6%
CC(=O)c1cnc2ccc(-c3cc(Cl)c(O)c(Cl)c3)nc2c1N[C@H]1CC[C@H](CN(C)C)CC1,percent Bodipy-positive cells,[3],50.7 ± 8.8%
same,percent Bodipy-positive cells,[4],68.3 ± 6%
same,percent Bodipy-positive cells,[5],71.6 ± 2.5%
CC[C@H]1OC(=O)[C@H](C)[C@@H](O[C@H]2C[C@@](C)(OC)[C@@H](O)[C@H](C)O2)[C@H](C)[C@@H](O[C@@H]2O[C@H](C)C[C@H](N(C)C)[C@H]2O)[C@](C)(O)C[C@@H](C)/C(=N\OCOCCOC)[C@H](C)[C@@H](O)[C@]1(C)O [Roxithromycin],percent Bodipy-positive cells,,9.84 ± 6.2%
same,percent Bodipy-positive cells,[6],6.62 ± 1.9%
same,percent Bodipy-positive cells,[2],27.6% and 36.8%
"N#CC(Cc1ccc(O)cc1)c1ccc(O)cc1 (stereo unspecified) [2,3-bis (4-Hydroxyphenyl) Propionitrile]",percent Bodipy-positive cells,[7],7.11 ± 1%
CC(C)n1cnc2c(NCCc3ccc(O)cc3)nc(-c3csc4ccccc34)nc21 [StemRegenin 1 (SR1)],percent Bodipy-positive cells,[2],84.6 ± 5%
CC[C@@H]([C@H](C)O)n1ncn(-c2ccc(N3CCN(c4ccc(OC[C@@H]5CO[C@@](Cn6cncn6)(c6ccc(F)cc6F)C5)cc4)CC3)cc2)c1=O [Posaconazole],percent Bodipy-positive cells,[2],70.3 ± 6.2%
CCCCC/C=C\CCCCCCCCCCCCC(=O)O [14(Z)-Eicosenoic Acid],percent Bodipy-positive cells,[7],14.4 ± 7.2%
COc1c2ccoc2nc2c(OC)c(OCC(O)C(C)(C)O)ccc12 (stereo unspecified) [Evoxine],percent Bodipy-positive cells,,8.18 ± 0.94%
CC(C)NCC(O)COc1ccc(COCCOC(C)C)cc1 (stereo unspecified),percent Bodipy-positive cells,[2],15.014 ± 0.00071%
CC(C)NCC(O)COc1ccc(COCCOC(C)C)cc1 (stereo unspecified) [Bisoprolol hemifumarate salt],percent Bodipy-positive cells,[2],59.5 ± 14%
CC(C)NCC(O)COc1ccc(COCCOC(C)C)cc1 (stereo unspecified) [(?)-Bisoprolol hemifumarate],percent Bodipy-positive cells,[2],9.54 ± 1.9%
CC(C)NCC(O)COc1ccc(COCCOC(C)C)cc1 (stereo unspecified) [Bisoprolol fumarate],percent Bodipy-positive cells,,25.4 ± 8.2%
same,percent Bodipy-positive cells,[6],6.04 ± 1.2%
same,percent Bodipy-positive cells,[1],1.75 ± 0.82%
same,percent Bodipy-positive cells,[2],17.4 ± 3.9%
Nc1nc(=S)c2ncn([C@@H]3O[C@H](CO)[C@@H](O)[C@H]3O)c2[nH]1 [Thioguanosine],percent Bodipy-positive cells,,32.8 ± 3%
O=C1CN2Cc3c(ccc(Cl)c3Cl)N=C2N1 [Anagrelide HCl],percent Bodipy-positive cells,[6],23.9 ± 9.7%
same,percent Bodipy-positive cells,[2],66.5 ± 2.5%
O=C1CN2Cc3c(ccc(Cl)c3Cl)N=C2N1 [Anagrelide hydrochloride],percent Bodipy-positive cells,library stock concentration: 6.8 mM,15.3 ± 4.3%
O=C1CN2Cc3c(ccc(Cl)c3Cl)N=C2N1 [Anagrelide],percent Bodipy-positive cells,library stock concentration: 7.8 mM,18 ± 0.19%
O=C1CN2Cc3c(ccc(Cl)c3Cl)N=C2N1,percent Bodipy-positive cells,[2],9.48 ± 2.1%
C#CCCCCCCCCCCCC(O)CC(O)CO (stereo unspecified) [Avocadyne],percent Bodipy-positive cells,[2],43.9 ± 15%
CCCCCC(O)C=CC1C(O)CC(=O)C1CCCCCCC(=O)O [15(R)-Prostaglandin E1],percent Bodipy-positive cells,[7],16.7 ± 1.3%
CCCCCC(O)C=CC1C(O)CC(=O)C1CCCCCCC(=O)O (stereo unspecified) [8-iso Prostaglandin E1],percent Bodipy-positive cells,[7],20.7 ± 2.7%
CCCCC[C@H](O)/C=C/[C@@H]1[C@@H](C/C=C\CCCC(=O)O)[C@@H](O)C[C@@H]1O [11.beta.-Prostaglandin F2.alpha.],percent Bodipy-positive cells,[7],15.4 ± 0.72%
"CCCCC[C@H](O)/C=C/[C@@H]1[C@@H](C/C=C\CCCC(=O)O)[C@@H](O)C[C@@H]1O [9a,11b-Prostaglandin F2]",percent Bodipy-positive cells,[7],15.3 ± 13%
Nc1nc(Cl)nc2c1ncn2[C@@H]1O[C@H](CO)[C@@H](O)[C@@H]1F [Clofarabine],percent Bodipy-positive cells,[6],32.8 ± 18%
same,percent Bodipy-positive cells,library stock concentration: 6.6 mM,12.8 ± 10%
CCCCCCCCCCCCCCCCOCC(CO)OC(C)=O (stereo unspecified) [1-Hexadecyl-2-O-acetyl-glycerol],percent Bodipy-positive cells,[7],5.53 ± 2.9%
CCCCCCCCCCCCCCOc1ccc(C(=O)O)o1,percent Bodipy-positive cells,[7],14.7 ± 3.6%
Cc1cc(C)c(N(Cc2ccccc2)S(=O)(=O)c2ccc(OCCNC(=O)c3cc4ccccc4o3)cc2)c(C(=O)NO)c1,percent Bodipy-positive cells,[2],6.52 ± 1.7%
CC(N)=O [Acetamide],percent Bodipy-positive cells,[2],39.6 ± 0.96%
CCCCCCCCCCCCCCCCCCOC[C@H](COP(=O)([O-])OCC[N+](C)(C)C)OC(C)=O,percent Bodipy-positive cells,[7],14.9% and 10.1%
CN1CC[C@H](c2c(O)cc(O)c3c(=O)cc(-c4ccccc4Cl)oc23)[C@H](O)C1,percent Bodipy-positive cells,[4],65.4 ± 12%
same,percent Bodipy-positive cells,[5],67.1 ± 13%
same,percent Bodipy-positive cells,[2],44.9 ± 8%
CN1CC[C@H](c2c(O)cc(O)c3c(=O)cc(-c4ccccc4Cl)oc23)[C@H](O)C1 [Flavopiridol HCl],percent Bodipy-positive cells,[6],61.4 ± 11%
same,percent Bodipy-positive cells,[2],61.6 ± 14%
CN1CC[C@H](c2c(O)cc(O)c3c(=O)cc(-c4ccccc4Cl)oc23)[C@H](O)C1 [Flavopiridol],percent Bodipy-positive cells,[3],47.6 ± 4.4%
same,percent Bodipy-positive cells,[4],46.7 ± 2.4%
same,percent Bodipy-positive cells,[5],50.9 ± 5.6%
same,percent Bodipy-positive cells,[2],38.4 ± 4.3%
COc1ccc(-c2cc(=O)c3c(O)cc(O)cc3o2)cc1O [Diosmetin],percent Bodipy-positive cells,[6],9.33 ± 0.13%
same,percent Bodipy-positive cells,[2],24.8 ± 0.92%
CC/C=C\C/C=C\C/C=C\CCCCCCCC(=O)NCCO [.alpha.-Linolenoyl Ethanolamide],percent Bodipy-positive cells,[7],7.93 ± 0.39%
CC(=O)OCC(COC(C)=O)OC(C)=O [Triacetin],percent Bodipy-positive cells,library stock concentration: 9.2 mM,12.7 ± 1.2%
same,percent Bodipy-positive cells,[2],32.3 ± 14%
NC[C@H]1O[C@@H](n2cnc3c(N)ncnc32)[C@H](O)[C@@H]1O [5'-Amino-5'-deoxyadenosine p-toluenesulfonate salt],percent Bodipy-positive cells,[2],44.7 ± 12%
C[C@@H](N)[C@H]1CC[C@H](C(=O)Nc2ccncc2)CC1,percent Bodipy-positive cells,[3],15.8 ± 11%
same,percent Bodipy-positive cells,[4],7.63 ± 1.9%
same,percent Bodipy-positive cells,[5],16.1 ± 2.3%
same,percent Bodipy-positive cells,[6],3.78 ± 1.7%
same,percent Bodipy-positive cells,library stock concentration: 20.2 mM,15.5 ± 0.3%
c1cnc2cc3c(cc2n1)[C@@H]1CNC[C@H]3C1 [Varenicline tartrate],percent Bodipy-positive cells,[2],40.9 ± 1.3%
CN1CCC[C@@H]1CCO[C@](C)(c1ccccc1)c1ccc(Cl)cc1 [Clemastine fumarate],percent Bodipy-positive cells,library stock concentration: 5.8 mM,57.1 ± 2.9%
CCc1cc(C(C)=O)c(O)cc1OCCCCCC(C)(C)c1nn[nH]n1,percent Bodipy-positive cells,[7],17.9 ± 5.5%
same,percent Bodipy-positive cells,[2],7.68 ± 2.2%
O=C(Cn1ccnc1[N+](=O)[O-])NCCO [Etanidazole],percent Bodipy-positive cells,,5.92 ± 1.3%
same,percent Bodipy-positive cells,library stock concentration: 9.3 mM,13.6 ± 7.2%
CCCCCCCCCCCCCCCC(=O)NC(C)C [Palmitoyl N-Isopropylamide],percent Bodipy-positive cells,[7],10.9 ± 4.8%
CCCCC[C@H](O)/C=C/[C@@H]1[C@H](C/C=C\CCCC(=O)O)[C@@H](O)C[C@H]1O [8-iso Prostaglandin F2.alpha.],percent Bodipy-positive cells,[7],12 ± 1.3%
C[C@H](NC(=O)c1sccc1OCc1ccc(Cl)cc1)c1ccccc1,percent Bodipy-positive cells,[2],10.4 ± 4.9%
CC(Cc1ccccc1)Nc1ncnc2c1ncn2C1OC(CO)C(O)C1O (stereo not drawn) [R(-)-N6-(2-Phenylisopropyl)adenosine],percent Bodipy-positive cells,[2],38.1 ± 3.9%

# Reformatted: entries from further up.
structure (smiles)	measurement	setting	value
Nc1nc(=O)c2nc(CNc3ccc(C(=O)N[C@@H](CCC(=O)O)C(=O)O)cc3)cnc2[nH]1 [Folic acid]	percent Bodipy-positive cells	[1]	14.3 ± 0.8%
CC(C)NCC(O)COc1ccc(COCCOC(C)C)cc1 (stereo unspecified) [Bisoprolol fumarate]	percent Bodipy-positive cells	[1]	1.75 ± 0.82%
O=C1CN2Cc3c(ccc(Cl)c3Cl)N=C2N1 [Anagrelide]	percent Bodipy-positive cells	library stock concentration: 7.8 mM	18 ± 0.19%
CN1CC[C@H](c2c(O)cc(O)c3c(=O)cc(-c4ccccc4Cl)oc23)[C@H](O)C1	percent Bodipy-positive cells	[4]	65.4 ± 12%
CN1CCC[C@@H]1CCO[C@](C)(c1ccccc1)c1ccc(Cl)cc1 [Clemastine fumarate]	percent Bodipy-positive cells	library stock concentration: 5.8 mM	57.1 ± 2.9%
CCCCC[C@H](O)/C=C/[C@@H]1[C@H](C/C=C\CCCC(=O)O)[C@@H](O)C[C@H]1O [8-iso Prostaglandin F2.alpha.]	percent Bodipy-positive cells	[7]	12 ± 1.3%
